Laboratory results taken from PMC3474958, “pH-sensitive Self-associations of the N-terminal Domain of NBCe1-A Suggest a Compact Conformation under Acidic Intracellular Conditions” (Protein and Peptide Letters, 2012).
Results are given in words; binding and its absence hold for the method and conditions named.

Target: cytoplasmic, N-terminal domain of NBCe1-A (residues 1 to 362) (human) (UniProt Q9Y6R1)
Test: SEC-MALS; ~2 mg/ml (0.5 ml) on Superdex-200 HR 10/30; 50 mM Tris, 150 mM NaCl, 1 mM TCEP; pH 11.5; both purified

binding: no binding (condition: at pH 11.5)
B1: cytoplasmic, N-terminal domain of NBCe1-A (residues 1 to 362) (domain or fragment, human, UniProt Q9Y6R1-2 1-362, looked up)
chain: MSTENVEGKPSNLGERGRARSSTFLRVVQPMFNHSIFTSAVSPAAERIRFILGEEDDSPAPPQLFTELDELLAVDGQEMEWKETARWIKFEEKVEQGGERWSKPHVATLSLHSLFELRTCMEKGSIMLDREASSLPQLVEMIVDHQIETGLLKPELKDKVTYTLLRKHRHQTKKSNLRSLADIGKTVSSASRMFTNPDNGSPAMTHRNLTSSSLNDISDKPEKDQLKNKFMKKLPRDAEASNVLVGEVDFLDTPFIAFVRLQQAVMLGALTEVPVPTRFLFILLGPKGKAKSYHEIGRAIATLMSDEVFHDIAYKAKDRHDLIAGIDEFLDEVIVLPPGEWDPAIRIEPPKSLPSSDKRKNM
notes: NBCe1-A, sodium-bicarbonate cotransporter variant 1A (SLC4 family), cytoplasmic N-terminal domain, residues 1 to 362; theoretical mass of the monomer 40.6 kDa, of the dimer 81.2 kDa; Exists in a concentration- and pH-dependent equilibrium of monomer, dimer and higher-order clusters; also called NtNBCe1-A; NtNBCe1
